Data as given in article PMC6941878.
These are yes or no findings as the source states them, for the method shown. In cells and extracts the contact can be indirect. Some binding calls cover weakened binding; strength is not graded here.

Protein sequences, listed by entry. Tags and fused reporters are not part of them.
UniProt P56524: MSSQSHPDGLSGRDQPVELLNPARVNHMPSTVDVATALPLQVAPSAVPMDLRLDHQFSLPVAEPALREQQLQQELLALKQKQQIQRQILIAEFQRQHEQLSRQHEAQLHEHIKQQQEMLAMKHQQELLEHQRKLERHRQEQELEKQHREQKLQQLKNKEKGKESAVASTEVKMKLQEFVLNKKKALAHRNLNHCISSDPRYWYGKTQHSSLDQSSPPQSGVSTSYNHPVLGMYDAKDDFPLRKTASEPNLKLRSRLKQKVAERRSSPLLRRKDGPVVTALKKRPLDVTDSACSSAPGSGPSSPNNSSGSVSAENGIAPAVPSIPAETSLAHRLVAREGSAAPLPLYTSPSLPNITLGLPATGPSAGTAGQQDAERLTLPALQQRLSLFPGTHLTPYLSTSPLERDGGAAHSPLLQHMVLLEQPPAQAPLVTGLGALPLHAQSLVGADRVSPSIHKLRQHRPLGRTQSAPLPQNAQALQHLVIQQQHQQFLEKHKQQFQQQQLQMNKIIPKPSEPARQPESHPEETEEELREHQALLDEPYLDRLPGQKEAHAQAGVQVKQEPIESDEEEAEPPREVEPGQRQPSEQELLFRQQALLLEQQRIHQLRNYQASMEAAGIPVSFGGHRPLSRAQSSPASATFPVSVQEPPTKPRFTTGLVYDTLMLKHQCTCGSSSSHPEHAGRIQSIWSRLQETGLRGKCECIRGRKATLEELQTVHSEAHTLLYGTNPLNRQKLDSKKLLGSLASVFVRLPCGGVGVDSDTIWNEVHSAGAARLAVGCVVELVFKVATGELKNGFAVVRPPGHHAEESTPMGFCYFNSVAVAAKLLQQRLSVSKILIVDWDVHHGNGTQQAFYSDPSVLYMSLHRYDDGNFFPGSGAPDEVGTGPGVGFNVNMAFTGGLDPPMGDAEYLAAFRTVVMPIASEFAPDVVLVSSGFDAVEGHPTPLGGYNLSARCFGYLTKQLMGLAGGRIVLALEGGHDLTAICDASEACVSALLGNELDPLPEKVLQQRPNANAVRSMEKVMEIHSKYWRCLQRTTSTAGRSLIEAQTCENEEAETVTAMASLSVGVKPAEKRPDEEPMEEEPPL
UniProt O75365: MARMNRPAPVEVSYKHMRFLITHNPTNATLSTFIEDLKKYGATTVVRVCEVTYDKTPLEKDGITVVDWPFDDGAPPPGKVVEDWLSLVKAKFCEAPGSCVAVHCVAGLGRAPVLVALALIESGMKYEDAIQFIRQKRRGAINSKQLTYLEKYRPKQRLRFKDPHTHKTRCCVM

Target: endogenous HDAC4 in A2780 cells (human (endogenous in A2780)) (UniProt P56524)
Assay: co-IP; A2780-GFP-PRL-3 cells; mutual immunoprecipitation of PRL-3 and HDAC4, immunoblot

## GFP-PRL-3 fusion protein (phosphatase of regenerating liver 3) in A2780 cells (from UniProt O75365 1-173)
  binding: binds
